Experimental data published in the supplement of paper PMC12819154, “High-throughput peptide-centric local stability assay extends protein–ligand identification to membrane proteins, tissues and bacteria” (Nature Structural & Molecular Biology, 2025).
This is one part of the list. Small differences around the control level are noise.

The chains behind the UniProt entries cited, without tags or fusion partners. Where a name states a change or a piece, a line headed by the entry shows the natural chain unless it says otherwise.
UniProt P08048: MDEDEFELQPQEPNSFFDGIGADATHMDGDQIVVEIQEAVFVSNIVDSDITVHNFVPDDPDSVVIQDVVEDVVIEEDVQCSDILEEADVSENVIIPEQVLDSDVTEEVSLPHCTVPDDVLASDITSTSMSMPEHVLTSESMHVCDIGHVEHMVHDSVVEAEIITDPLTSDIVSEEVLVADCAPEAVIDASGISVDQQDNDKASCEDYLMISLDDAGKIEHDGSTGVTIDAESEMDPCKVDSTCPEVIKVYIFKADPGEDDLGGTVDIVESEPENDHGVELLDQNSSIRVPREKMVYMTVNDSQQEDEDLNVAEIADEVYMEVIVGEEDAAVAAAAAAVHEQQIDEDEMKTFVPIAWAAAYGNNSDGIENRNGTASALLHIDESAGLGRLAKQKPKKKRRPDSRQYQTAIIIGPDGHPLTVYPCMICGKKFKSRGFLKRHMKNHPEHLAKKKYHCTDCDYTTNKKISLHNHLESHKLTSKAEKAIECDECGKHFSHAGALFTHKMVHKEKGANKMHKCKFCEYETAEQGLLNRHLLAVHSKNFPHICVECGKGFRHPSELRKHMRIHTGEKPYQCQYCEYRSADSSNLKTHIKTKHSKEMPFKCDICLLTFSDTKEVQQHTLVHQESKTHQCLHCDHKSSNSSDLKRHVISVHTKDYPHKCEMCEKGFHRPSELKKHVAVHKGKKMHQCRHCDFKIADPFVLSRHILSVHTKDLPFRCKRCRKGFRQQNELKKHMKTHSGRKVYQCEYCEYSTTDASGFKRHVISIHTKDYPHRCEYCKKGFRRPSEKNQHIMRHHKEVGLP
UniProt P00492: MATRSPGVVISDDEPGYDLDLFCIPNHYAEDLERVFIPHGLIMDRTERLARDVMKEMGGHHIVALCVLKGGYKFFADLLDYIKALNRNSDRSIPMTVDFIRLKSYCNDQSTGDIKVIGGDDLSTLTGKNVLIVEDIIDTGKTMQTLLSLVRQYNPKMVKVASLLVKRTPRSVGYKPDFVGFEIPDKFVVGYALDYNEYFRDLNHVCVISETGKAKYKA
UniProt P13674: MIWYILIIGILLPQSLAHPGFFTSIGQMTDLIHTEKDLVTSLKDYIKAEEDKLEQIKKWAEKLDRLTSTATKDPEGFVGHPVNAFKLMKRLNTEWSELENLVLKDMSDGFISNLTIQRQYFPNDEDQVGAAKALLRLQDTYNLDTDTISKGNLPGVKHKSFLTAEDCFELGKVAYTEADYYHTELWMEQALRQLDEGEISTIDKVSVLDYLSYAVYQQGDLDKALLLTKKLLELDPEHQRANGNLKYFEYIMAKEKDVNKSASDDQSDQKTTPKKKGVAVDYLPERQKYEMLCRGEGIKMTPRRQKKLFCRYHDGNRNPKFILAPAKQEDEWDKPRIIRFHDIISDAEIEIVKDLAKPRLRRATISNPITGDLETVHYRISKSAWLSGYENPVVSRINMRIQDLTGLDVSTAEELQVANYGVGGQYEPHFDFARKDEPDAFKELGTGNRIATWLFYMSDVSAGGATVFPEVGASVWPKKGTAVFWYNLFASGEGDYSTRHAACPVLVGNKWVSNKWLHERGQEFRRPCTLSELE
UniProt P06753, whole entry: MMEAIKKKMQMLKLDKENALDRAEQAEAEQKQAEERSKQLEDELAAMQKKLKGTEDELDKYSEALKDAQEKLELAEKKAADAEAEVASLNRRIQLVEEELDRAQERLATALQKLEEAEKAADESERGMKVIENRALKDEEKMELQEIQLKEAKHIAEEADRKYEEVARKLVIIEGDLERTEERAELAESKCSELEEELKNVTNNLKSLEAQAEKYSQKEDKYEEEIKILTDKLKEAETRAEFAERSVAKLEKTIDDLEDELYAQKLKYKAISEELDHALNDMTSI
UniProt P10242: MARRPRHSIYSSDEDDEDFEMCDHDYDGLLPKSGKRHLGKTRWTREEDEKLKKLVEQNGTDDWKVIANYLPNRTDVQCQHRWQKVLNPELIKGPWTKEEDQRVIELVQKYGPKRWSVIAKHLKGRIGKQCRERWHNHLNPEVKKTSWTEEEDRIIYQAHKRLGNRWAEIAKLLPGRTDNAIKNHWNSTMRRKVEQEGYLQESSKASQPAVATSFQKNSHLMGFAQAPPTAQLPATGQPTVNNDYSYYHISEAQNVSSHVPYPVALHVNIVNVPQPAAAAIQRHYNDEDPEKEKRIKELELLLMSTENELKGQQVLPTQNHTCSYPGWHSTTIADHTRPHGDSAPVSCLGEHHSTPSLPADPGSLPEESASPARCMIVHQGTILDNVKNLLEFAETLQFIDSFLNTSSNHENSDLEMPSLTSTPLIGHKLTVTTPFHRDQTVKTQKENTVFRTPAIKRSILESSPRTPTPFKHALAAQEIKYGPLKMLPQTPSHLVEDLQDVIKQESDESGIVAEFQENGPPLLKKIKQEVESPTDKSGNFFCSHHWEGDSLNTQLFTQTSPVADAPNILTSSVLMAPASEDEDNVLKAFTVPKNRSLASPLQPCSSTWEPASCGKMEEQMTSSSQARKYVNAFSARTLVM
UniProt P05387, whole entry: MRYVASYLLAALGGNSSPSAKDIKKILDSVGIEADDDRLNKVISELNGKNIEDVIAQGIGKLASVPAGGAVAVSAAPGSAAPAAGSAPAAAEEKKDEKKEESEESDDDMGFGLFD
UniProt P09110: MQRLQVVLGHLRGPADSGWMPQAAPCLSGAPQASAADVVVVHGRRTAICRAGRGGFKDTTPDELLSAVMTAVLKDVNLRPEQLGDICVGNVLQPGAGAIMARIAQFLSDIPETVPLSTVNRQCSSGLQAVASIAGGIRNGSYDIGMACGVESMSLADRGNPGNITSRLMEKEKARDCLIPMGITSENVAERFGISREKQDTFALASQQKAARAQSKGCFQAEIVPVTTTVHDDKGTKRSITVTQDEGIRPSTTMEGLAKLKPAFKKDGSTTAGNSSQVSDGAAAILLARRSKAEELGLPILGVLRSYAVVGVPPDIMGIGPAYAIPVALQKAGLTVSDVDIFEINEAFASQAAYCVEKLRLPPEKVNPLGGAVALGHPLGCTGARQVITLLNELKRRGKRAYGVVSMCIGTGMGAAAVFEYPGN
UniProt P12429: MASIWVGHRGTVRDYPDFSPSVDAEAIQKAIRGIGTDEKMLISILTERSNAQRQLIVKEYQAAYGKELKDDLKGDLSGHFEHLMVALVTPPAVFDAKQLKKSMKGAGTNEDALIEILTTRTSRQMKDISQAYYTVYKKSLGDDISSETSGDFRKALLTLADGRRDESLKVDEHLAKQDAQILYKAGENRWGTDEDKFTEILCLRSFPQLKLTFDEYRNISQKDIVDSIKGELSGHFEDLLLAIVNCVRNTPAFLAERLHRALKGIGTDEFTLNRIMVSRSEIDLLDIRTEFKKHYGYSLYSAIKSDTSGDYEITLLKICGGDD

Compound: CN[C@@H]1C[C@H]2O[C@@](C)([C@@H]1OC)n1c3ccccc3c3c4c(c5c6ccccc6n2c5c31)C(=O)NC4 [staurosporine]
Assay: log2 fold change of tryptic peptide abundance, ligand vs vehicle (limited proteolysis) (log2 ratio); higher = more trypsin-susceptible (destabilized)
Conditions: ligand concentration: 20 uM; sample: K562 cleared lysate; digestion: 4 min, 22 C (HT-PELSA RT4min, Orbitrap Astral)

Target: UniProt P08048 (peptide sequence: HILSVHTK, peptide start residue: 708)
- log2 fold change: 0.47

Target: HPRT1 (peptide sequence: VFIPHGLIMDR, peptide start residue: 35) (UniProt P00492)
- log2 fold change: 0.168

Target: P4HA1 (peptide sequence: DYIKAEEDKLEQIK, peptide start residue: 44) (UniProt P13674)
- log2 fold change: 0.463

Target: TPM3 (peptide sequence: HIAEEADRK, peptide start residue: 117) (UniProt P06753)
- log2 fold change: -0.138

Target: MYB (peptide sequence: CMIVHQGTILDNVK, peptide start residue: 374) (UniProt P10242)
- log2 fold change: 0.218

Target: RPLP2 (peptide sequence: ILDSVGIEADDDRLNK, peptide start residue: 26) (UniProt P05387)
- log2 fold change: -0.0509

Target: RPSA (peptide sequence: FTPGTFTNQIQAAFR, peptide start residue: 103) (UniProt P08865)
- log2 fold change: 0.199

Target: ACAA1 (peptide sequence: RSITVTQDEGIRPSTTMEGLAK, peptide start residue: 238) (UniProt P09110)
- log2 fold change: -0.385

Target: EEF2 (peptide sequence: DSVVAGFQWATK, peptide start residue: 677) (UniProt P13639)
- log2 fold change: -0.259

Target: ANXA3 (peptide sequence: MLISILTER, peptide start residue: 40) (UniProt P12429)
- log2 fold change: 0.0841
